According to article PMC7819943, “Rice protein-binding microarrays: a tool to detect cis-acting elements near promoter regions in rice”:
The list shows a part of the results.

Chains of the proteins cited; added tags and fusions are not shown.
UniProt Q0JBA9, entry or part of it: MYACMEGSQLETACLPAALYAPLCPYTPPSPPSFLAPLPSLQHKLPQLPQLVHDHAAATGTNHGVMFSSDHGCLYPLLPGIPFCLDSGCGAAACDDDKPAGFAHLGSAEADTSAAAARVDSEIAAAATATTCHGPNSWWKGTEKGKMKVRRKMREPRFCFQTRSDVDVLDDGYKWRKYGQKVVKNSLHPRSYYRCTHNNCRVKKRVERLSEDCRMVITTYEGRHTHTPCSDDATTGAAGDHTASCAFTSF

These sequences were tested against OsWRKY34 (Oryza sativa, UniProt Q0JBA9 1-250) (assay: protein-binding microarray (RPBM); PBS, 2% BSA, 51.3 ng/ul salmon testes DNA, 50 uM zinc acetate, 200 nM TF, 25 C, 1 h; high values mean tight binding). Settings: protein: recombinant; tags: N-terminal polyhistidine and DsRed monomer fusion (pET32a); label: CyDye5-dUTP incorporated in the synthesized complementary strand; 3' TTTTT single-stranded linker to array surface; dsDNA, one strand shown.
Procedure, shortened: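 An Axon 4000B scanner gave the binding signal as per-feature fluorescence intensity in arbitrary units. This followed washing of a custom Agilent array that had been incubated for 1 h at 25 °C with 200 nM protein in PBS, 2% BSA, salmon testes DNA and 50 µM zinc acetate. The proteins were transcription factors fused at the N-terminus to polyhistidine and DsRed, expressed in E. coli BL21-CodonPlus and purified on Ni–NTA.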
“ATAGCGACATTATTCTTCCTCTCACCTTGCCCCTTCACACCGGAGTCACCTAGTGCAG” was tested, and the binding signal was 8730 fluorescence intensity (a.u.).
In the case of “TTACAATTAACACTACTGTCTATGTCTCAATTCATACTATCGGAGTCACCTAGTGCAG”, the binding signal is reported as 9150 fluorescence intensity (a.u.).
With “AGCTGCGAGCTGTTTGTTTCTCTGGATTATTGAAGGCATCCGGAGTCACCTAGTGCAG” the binding signal was 8890 fluorescence intensity (a.u.).
“TTTTACGACTCTATTTTATCTTAGAACTCTGTTTTATTTTCGGAGTCACCTAGTGCAG” was tested, and the binding signal was 9020 fluorescence intensity (a.u.).
In the case of “TTCGGCGGCCAGCCCGCCTCCTCCCCGATGCCTTTGCATCCGGAGTCACCTAGTGCAG”, the binding signal is reported as 8950 fluorescence intensity (a.u.).
“GCCTCCAAAACTCCACCCACCCACCCACACCGTCGCCATGCGGAGTCACCTAGTGCAG” was tested, and the binding signal was 9340 fluorescence intensity (a.u.).
With “TAGATGAAAATCTGGGATCCAAACTGGTGTTCATGTATGTCGGAGTCACCTAGTGCAG” the binding signal was 8700 fluorescence intensity (a.u.).
“ACACCACACCACCACCACCACCACCCACCCCTCGTATGCACGGAGTCACCTAGTGCAG” was tested, and the binding signal was 9660 fluorescence intensity (a.u.).
For “ATTACACTCCTATACTACACTACGGCCCTTTTGTTTAAGCCGGAGTCACCTAGTGCAG”, the binding signal was 8990 fluorescence intensity (a.u.).
For “CAACACATATCACATTCTTTCAATAAAACATAGGCCATATCGGAGTCACCTAGTGCAG”, the binding signal was 8580 fluorescence intensity (a.u.).
In the case of “AGCGCGTCGCTTTCTTTCTTTCTTTCAGTTTTTTTTTTCCCGGAGTCACCTAGTGCAG”, the binding signal is reported as 10500 fluorescence intensity (a.u.).
For “GTCTCCTCGATTCCGATCCGGCGCCGGCGGCCATGGCCGACGGAGTCACCTAGTGCAG”, the binding signal was 8680 fluorescence intensity (a.u.).
“GCTACCTACTCCCACTTTCTGAGAGAATACCTGTTGATAACGGAGTCACCTAGTGCAG” was tested, and the binding signal was 8900 fluorescence intensity (a.u.).
For “GCCATCTCGCCTAAATAAAACCGCGCTACCCATCGACCGACGGAGTCACCTAGTGCAG”, the binding signal was 9280 fluorescence intensity (a.u.).
“CTTCAAGGCTCCAGTCCAGCTGCTCGCTCCCACCACCCTTCGGAGTCACCTAGTGCAG” was tested, and the binding signal was 8120 fluorescence intensity (a.u.).
In the case of “TTGTATGGAAATTTTAAGTTATGTTTTGTTAGGTGTGTTTCGGAGTCACCTAGTGCAG”, the binding signal is reported as 8340 fluorescence intensity (a.u.).
In the case of “AAATCGTATATCCTACTTATTCTCACACCAAAACACATCCCGGAGTCACCTAGTGCAG”, the binding signal is reported as 8410 fluorescence intensity (a.u.).
In the case of “CTCCTCTTCGAGTCGTCCGCTTCCACTCACGCCGGCTCATCGGAGTCACCTAGTGCAG”, the binding signal is reported as 9820 fluorescence intensity (a.u.).
For “ACCCTACCCTACGCCCGGATAAAATCTCGTACACATCCCGCGGAGTCACCTAGTGCAG”, the binding signal was 9210 fluorescence intensity (a.u.).
For “TTCACGATTGTCCCGTCGTAATTTTACACAATCCATTTTTCGGAGTCACCTAGTGCAG”, the binding signal was 12000 fluorescence intensity (a.u.).
With “ATTGCTGACTAAACTTGTTTCTTGCCTTTAGAGTAGCTGTCGGAGTCACCTAGTGCAG” the binding signal was 9800 fluorescence intensity (a.u.).
For “CCCTTCGTTTCCCACCCACCACCTCTCTCCGGCGTGCTCGCGGAGTCACCTAGTGCAG”, the binding signal was 8060 fluorescence intensity (a.u.).
With “ATGCTATCGCTCTGTCTTGAGGACTCAGCGTCGCCGCTCCCGGAGTCACCTAGTGCAG” the binding signal was 8230 fluorescence intensity (a.u.).
For “AGCAGTGTAGAGGAGGAGGAGGCGGCGGCGGCGGCGGCGGCGGAGTCACCTAGTGCAG”, the binding signal was 9880 fluorescence intensity (a.u.).
In the case of “GTTGCAGGTTGATGGCTTGAGCACACTGTCCCCTCCACCGCGGAGTCACCTAGTGCAG”, the binding signal is reported as 9330 fluorescence intensity (a.u.).
In the case of “CCTGGCGTCGCCGGACCCCGTCCCGTACAAGCTGCTCGCGCGGAGTCACCTAGTGCAG”, the binding signal is reported as 8100 fluorescence intensity (a.u.).
In the case of “TACTATTTTTTCTCGTATTCATTATTTTGTGCATTATTTTCGGAGTCACCTAGTGCAG”, the binding signal is reported as 17200 fluorescence intensity (a.u.).
With “AATCCCCGCCGCTAGTCTCGCCCACAGAAGATTCGAACACCGGAGTCACCTAGTGCAG” the binding signal was 9200 fluorescence intensity (a.u.).
With “TCCAAGCTACGACAATGGCGGCCGCCACCTTCGCCTTTATCGGAGTCACCTAGTGCAG” the binding signal was 8210 fluorescence intensity (a.u.).
In the case of “AGCAATTCATTTATTTCTTTTTCCAAATTCCACCTCTCATCGGAGTCACCTAGTGCAG”, the binding signal is reported as 9200 fluorescence intensity (a.u.).
“GTTTTACTAGTTCTATATTGTACTTGCTGAGTATTCTTTACGGAGTCACCTAGTGCAG” was tested, and the binding signal was 9010 fluorescence intensity (a.u.).
With “AGTTTGTGATTGTAATGTTGTGCTACACTGTCCTTATCTTCGGAGTCACCTAGTGCAG” the binding signal was 11500 fluorescence intensity (a.u.).
For “CGCCCGCCGCGCGCCAATCGCCGCTCCGCCGACCTCCGGCCGGAGTCACCTAGTGCAG”, the binding signal was 14000 fluorescence intensity (a.u.).
With “CATATTCGTTTCGTTTTTGTATTCGATAATATTTGATTGTCGGAGTCACCTAGTGCAG” the binding signal was 8360 fluorescence intensity (a.u.).
With “GAGAACATTCAATATTTGCCATTTCGTTGAATTTTTTGTACGGAGTCACCTAGTGCAG” the binding signal was 10300 fluorescence intensity (a.u.).
“ATTCAGTGTTACATTACTCATAGAGACCATTTGAGCTTTCCGGAGTCACCTAGTGCAG” was tested, and the binding signal was 8270 fluorescence intensity (a.u.).
With “CGTGATGGTCATTTTTCTTTTGACATATAATCCTGTAGAACGGAGTCACCTAGTGCAG” the binding signal was 8150 fluorescence intensity (a.u.).
“CCCACCAGCTATATTTGCCAATCTTCCCCATCATAAATGACGGAGTCACCTAGTGCAG” was tested, and the binding signal was 8350 fluorescence intensity (a.u.).
In the case of “TGGCCCTTACACTCTGTGCTGCCTCTGCCTGTACCAATCCCGGAGTCACCTAGTGCAG”, the binding signal is reported as 10300 fluorescence intensity (a.u.).
With “GCATTGCTAGGTTGTGTCAGTTTCTCTTTGTATGAATTTTCGGAGTCACCTAGTGCAG” the binding signal was 11200 fluorescence intensity (a.u.).
In the case of “CATTTGACTTTTTCTATTAGTTAAAGTTATTTGGATTTGACGGAGTCACCTAGTGCAG”, the binding signal is reported as 8300 fluorescence intensity (a.u.).
With “CACCGTCCGCAACCTCGCCCAACCACCTGAGATTAGAACGCGGAGTCACCTAGTGCAG” the binding signal was 8130 fluorescence intensity (a.u.).
With “CCGCCCATTTGACTCTCGCCGTCGACGCCGCGTGCGAGTCCGGAGTCACCTAGTGCAG” the binding signal was 8240 fluorescence intensity (a.u.).
“AAGCCACACTTTACTAGCACATTGGTCCACACGTCATACTCGGAGTCACCTAGTGCAG” was tested, and the binding signal was 8380 fluorescence intensity (a.u.).
For “GGTCCTGAACTGTTATGCATGTTTCATTTGTTGCCCCTCGCGGAGTCACCTAGTGCAG”, the binding signal was 10400 fluorescence intensity (a.u.).
For “GTATTCCAGACGTATGAGGGTTGTCATGTATGACTTGTATCGGAGTCACCTAGTGCAG”, the binding signal was 8100 fluorescence intensity (a.u.).
In the case of “GGCTGTGTTTGTGTTTAGTTCACACTGAAGTTTGGAAGTTCGGAGTCACCTAGTGCAG”, the binding signal is reported as 8060 fluorescence intensity (a.u.).
“TCAGGCACTACTGTTGACTACAGTTGGTTAATTTTGTTGACGGAGTCACCTAGTGCAG” was tested, and the binding signal was 9310 fluorescence intensity (a.u.).
“GCAATTGAACTACATAACAATTGTTTCGTATGTCTCTAGTCGGAGTCACCTAGTGCAG” was tested, and the binding signal was 9150 fluorescence intensity (a.u.).
In the case of “TGTTTTGGATTGGGAATGGGATGCATCATCAACAGCAGCACGGAGTCACCTAGTGCAG”, the binding signal is reported as 9390 fluorescence intensity (a.u.).
For “TGTTATGCGCCGACTTGCAAAAATTCCACTGCTACGTAGCCGGAGTCACCTAGTGCAG”, the binding signal was 10200 fluorescence intensity (a.u.).
“AGTTTGGCGGTAGGGAGGGCGGCGGCGGTGGATCCGAAGGCGGAGTCACCTAGTGCAG” was tested, and the binding signal was 8290 fluorescence intensity (a.u.).
For “AGGGTTTACGTGTGTGTTCATAGGGGTTAGTGTGCGAGCACGGAGTCACCTAGTGCAG”, the binding signal was 12100 fluorescence intensity (a.u.).
In the case of “CTACTCATAATCCTCATCGAATCGCTTCTTTCTACTACAGCGGAGTCACCTAGTGCAG”, the binding signal is reported as 9970 fluorescence intensity (a.u.).
